Data source: PubChem BioAssay AID1159584 (Peter MacCallum Cancer Centre, 2016)

Aim: 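Genes that CDH1-null MCF10A cells selectively depend on to survive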 (primary screen)
System: human MCF10A breast epithelial cells, parental and CDH1-null
Reagent: siRNA against human genes
Measured: 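Cell viability by CellTiter-Glo ATP luminescence, each line scaled to the mean of mock wells across plates, then CDH1-null over parental ratio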
Direction: CDH1-null / parental viability ratio: higher = CDH1-null cells survive relatively better than parental
Shown is one part, drawn at random, of about 18,000 reagents tested. Not all columns of the deposit are shown. Not stated in the record: the amount of reagent, the time to read-out.

ADCK5 — CDH1-null / parental viability ratio: 0.79
KIAA0408 — CDH1-null / parental viability ratio: 0.91
C1orf146 — CDH1-null / parental viability ratio: 0.81
SCPEP1 — CDH1-null / parental viability ratio: 1.02
SPHK1 — CDH1-null / parental viability ratio: 0.89
GCHFR — CDH1-null / parental viability ratio: 1.15
RYBP — CDH1-null / parental viability ratio: 0.99
CAAP1 — CDH1-null / parental viability ratio: 0.91
GET1 — CDH1-null / parental viability ratio: 1.07
CBFA2T2 — CDH1-null / parental viability ratio: 1
GLT8D2 — CDH1-null / parental viability ratio: 1.03
CSN3 — CDH1-null / parental viability ratio: 1.1
TBL2 — CDH1-null / parental viability ratio: 1.02
IP6K3 — CDH1-null / parental viability ratio: 0.93
CDC40 — CDH1-null / parental viability ratio: 1.33
GOLGA6L9 — CDH1-null / parental viability ratio: 1.16
CCDC88A — CDH1-null / parental viability ratio: 1.12
GPR101 — CDH1-null / parental viability ratio: 0.99
ATXN10 — CDH1-null / parental viability ratio: 0.9
EFCAB5 — CDH1-null / parental viability ratio: 1.26
IPO9 — CDH1-null / parental viability ratio: 0.8
PCDHGA1 — CDH1-null / parental viability ratio: 0.93
RBM34 — CDH1-null / parental viability ratio: 1.13
TENM2 — CDH1-null / parental viability ratio: 0.93
